# Laboratory results published in PubChem BioAssay (Tox21).
# Protein sequences, listed by entry. Tags and fused reporters are not part of them.
# UniProt P10635, whole entry, looked up: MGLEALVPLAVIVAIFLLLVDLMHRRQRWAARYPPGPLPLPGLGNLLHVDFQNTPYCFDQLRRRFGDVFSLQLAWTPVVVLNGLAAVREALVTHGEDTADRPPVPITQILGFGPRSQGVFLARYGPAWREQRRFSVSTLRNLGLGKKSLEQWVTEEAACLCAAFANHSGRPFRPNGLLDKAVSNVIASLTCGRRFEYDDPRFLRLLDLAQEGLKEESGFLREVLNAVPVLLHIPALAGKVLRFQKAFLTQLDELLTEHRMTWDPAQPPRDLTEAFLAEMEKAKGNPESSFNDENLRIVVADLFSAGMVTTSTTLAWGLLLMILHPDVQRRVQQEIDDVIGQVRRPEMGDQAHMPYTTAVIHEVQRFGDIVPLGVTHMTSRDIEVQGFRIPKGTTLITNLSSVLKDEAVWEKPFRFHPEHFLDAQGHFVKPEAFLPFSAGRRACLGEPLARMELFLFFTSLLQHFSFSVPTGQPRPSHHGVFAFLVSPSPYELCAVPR
# UniProt P33261, whole entry, looked up: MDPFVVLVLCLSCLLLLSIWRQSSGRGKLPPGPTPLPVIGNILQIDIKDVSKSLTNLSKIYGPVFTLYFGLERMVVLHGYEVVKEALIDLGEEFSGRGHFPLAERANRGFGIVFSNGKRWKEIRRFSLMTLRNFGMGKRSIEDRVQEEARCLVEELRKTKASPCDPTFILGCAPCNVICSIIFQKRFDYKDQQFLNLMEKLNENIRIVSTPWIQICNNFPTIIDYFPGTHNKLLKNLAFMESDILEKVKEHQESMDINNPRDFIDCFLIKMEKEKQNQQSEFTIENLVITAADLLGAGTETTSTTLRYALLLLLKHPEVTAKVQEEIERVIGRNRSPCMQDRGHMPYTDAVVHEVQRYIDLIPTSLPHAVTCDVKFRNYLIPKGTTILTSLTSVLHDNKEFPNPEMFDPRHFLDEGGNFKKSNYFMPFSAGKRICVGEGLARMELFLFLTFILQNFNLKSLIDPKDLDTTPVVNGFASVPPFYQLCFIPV
# UniProt P11712, whole entry, looked up: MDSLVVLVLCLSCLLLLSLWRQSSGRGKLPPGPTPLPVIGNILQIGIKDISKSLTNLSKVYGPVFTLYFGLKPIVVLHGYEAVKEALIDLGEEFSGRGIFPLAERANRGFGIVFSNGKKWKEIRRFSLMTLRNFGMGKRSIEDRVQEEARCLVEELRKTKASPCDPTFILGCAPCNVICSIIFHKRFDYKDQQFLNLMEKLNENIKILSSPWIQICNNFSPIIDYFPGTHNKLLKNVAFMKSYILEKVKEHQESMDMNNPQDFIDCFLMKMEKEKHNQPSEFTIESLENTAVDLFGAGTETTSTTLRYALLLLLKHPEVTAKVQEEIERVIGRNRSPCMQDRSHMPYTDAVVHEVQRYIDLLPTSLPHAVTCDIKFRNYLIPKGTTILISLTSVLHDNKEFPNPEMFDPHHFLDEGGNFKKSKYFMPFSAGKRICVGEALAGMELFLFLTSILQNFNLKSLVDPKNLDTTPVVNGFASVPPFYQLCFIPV
# Several values for one entry are separate records, joined by “and”; a condition that tells them apart may be missing. Equal values may be shown once. The shares of active, inactive and inconclusive entries below differ from those in the screen. A potency beside an inconclusive call is a rough fit, not a confirmed value. The source holds several records for some structures; these can differ, active in one and inactive in another. Activity calls are given as the source filed them. The call rests on the fitted dose curve; in most records, active means well fitted inhibition curve with a large enough effect in the repeat runs; inconclusive means weak or mixed curves; inactive means no such curve, though single readings can be large or run the other way.
# Biological target: Cytochrome P450 2D6 (Homo sapiens) (UniProt P10635)
# Test: Cytochrome P450 Family 2 Subfamily D Member 6 (CYP2D6) small molecule antagonists: luciferase reporter qHTS assay (AID 1671196); further: nearly all actives have a fitted effect of over 50% in size
# Details: P450-Glo CYP2D6 enzyme assay, luciferin luminescence, 1 h; series mostly up to 115 µM
# Outline: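 Quantitative HTS of Tox21 chemicals against CYP2D6 using a luminescent proluciferin substrate. After NADPH addition, 1 h room-temperature reaction; luminescence recorded 20 min post detection reagent.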
# Potency means the concentration at half of the fitted maximal effect.
row,Compound,Potency
1,CC1CN(c2ccccc2)NC1=O (configuration not stated),active: 31.7 µM
2,Cn1c(N)nc2nc[nH]c2c1=O,"inconclusive: 44.3 µM [inhibitor, partial curve]"
3,Cc1ccccc1N=C(N)Nc1ccccc1C,active: 0.0156 µM
4,O=C1OC[C@H](Cc2cccc(O)c2)[C@H]1Cc1cccc(O)c1,"inconclusive: 13.5 µM [inhibitor, partial curve, poor fit]"
5,CCCCC(CC)COC(=O)CCCCC(=O)OCc1ccccc1 (configuration not stated),inactive
6,CC1(C)S[C@@H]2[C@H](NC(=O)[C@H](N)c3ccccc3)C(=O)N2[C@H]1C(=O)O,"inconclusive: 39.9 µM [inhibitor, partial curve]"
7,O=C(/C=C/c1ccccc1)OCCc1ccccc1,inactive
8,C=C(C)[C@@H]1CCC2=CCC[C@@H](C)[C@]2(C)C1,inactive

# Laid out differently: entries from further up.
row	Compound	Potency
3	Cc1ccccc1N=C(N)Nc1ccccc1C	active: 0.0156 µM
4	O=C1OC[C@H](Cc2cccc(O)c2)[C@H]1Cc1cccc(O)c1	inconclusive: 13.5 µM [inhibitor, partial curve, poor fit]
5	CCCCC(CC)COC(=O)CCCCC(=O)OCc1ccccc1 (configuration not stated)	inactive
6	CC1(C)S[C@@H]2[C@H](NC(=O)[C@H](N)c3ccccc3)C(=O)N2[C@H]1C(=O)O	inconclusive: 39.9 µM [inhibitor, partial curve]

# Biological target: Cytochrome P450 2C19 (Homo sapiens) (UniProt P33261)
# Test: Cytochrome P450 Family 2 Subfamily C Member 19 (CYP2C19) small molecule antagonists: luciferase reporter qHTS assay (AID 1671197); further: nearly all actives have a fitted effect of over 65% in size
# Details: P450-Glo CYP2C19 enzyme, luciferin luminescence, 1 h; series mostly up to 115 µM
# Outline: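 Luminescent readout of CYP2C19 activity: luciferin product detected 20 min after adding detection reagent. Before that, compound and enzyme-substrate mix preincubated 10 min at room temperature; NADPH-regenerating system started a 1 h, 37C reaction. Ketoconazole as positive control.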
row,Compound,Potency
1,C1CCCC1,"inconclusive: 78 µM [inhibitor, single point]"
2,CCCCOC(=O)C(C)CC (configuration not stated),"inconclusive: 7.96 µM [inhibitor, single point]"
3,CCC(C)COC(C)=O (configuration not stated),"inconclusive: 89.4 µM [inhibitor, single point]"
4,CCCCCCCCCCCC(=O)OC,"inconclusive: 89.4 µM [inhibitor, single point]"
5,CCOC(=O)c1ccccc1C,inactive
6,CC1=C(C=O)C(C)(C)CCC1,"inconclusive: 79.6 µM [inhibitor, single point]"
7,O=C=Nc1ccc(Cl)c(Cl)c1,inactive
8,Cc1cccc([N+](=O)[O-])c1C,"inconclusive: 0.71 µM [inhibitor, single point]"
9,COC(=O)c1cccc(C(=O)OC)c1,"inconclusive: 79.6 µM [inhibitor, single point]"
10,CC(=O)/C(C)=C/C1C(C)=CCCC1(C)C (configuration not stated),"inconclusive: 89.4 µM [inhibitor, single point]"
11,CCCCCCCCCCCCOC(C)=O,inactive
12,C=CN1CCCC1=O,"inconclusive: 89.4 µM [inhibitor, single point]"
13,CC(=O)OCC[N+](C)(C)C,"inconclusive: 21.9 µM [inhibitor, partial curve, poor fit]"
14,Cc1cccc(C)c1NC(=O)c1cc(S(N)(=O)=O)c(Cl)cc1O,inactive
15,CC[C@H](C)COC(=O)/C=C/c1ccc(N=Cc2ccc(OC)cc2)cc1,active: 0.893 µM
16,CCCC(=O)C(C)=O,"inconclusive: 89.4 µM [inhibitor, single point]"

row,Compound,Potency
1,CC(=O)OCC(COC(C)=O)OC(C)=O,"inconclusive: 89.4 µM [inhibitor, single point]"
2,O=C(OCc1ccccc1)c1ccccc1,active: 31.8 µM and active: 39.9 µM and active: 17.4 µM
3,COC(=O)CCCCC(=O)OC,inactive
4,C=CC(=O)NC(C)(C)CS(=O)(=O)O,"inconclusive: 39.1 µM [inhibitor, partial curve, poor fit]"
5,CCCCCCCC(=O)OC,inactive
6,CCn1cc(C(=O)O)c(=O)c2cc(F)c(N3CCNC(C)C3)c(F)c21 (configuration not stated),"inconclusive: 43.6 µM [inhibitor, single point]"
7,CC(NN)c1ccccc1 (configuration not stated),"inconclusive: 4.77 µM [inhibitor, partial curve, poor fit]"
8,CN=C(N)NC(=O)Nc1c(C)cccc1C,"inconclusive: 43.6 µM [inhibitor, single point]"
9,CCOC(=O)C1OC1c1ccccc1 (configuration not stated),inconclusive: 79.6 µM [inhibitor]
10,CC(=O)c1cnccn1,"inconclusive: 83.5 µM [inhibitor, single point]"
11,Nc1ncnc2c1ncn2[C@@H]1O[C@H](COP(=O)(O)O)[C@@H](O)[C@H]1O,inactive
12,CN(C/C=C/c1ccccc1)Cc1cccc2ccccc12,active: 3.89 µM
13,O=C1NC(=O)c2cccc3cccc1c23,inconclusive: 89.4 µM [inhibitor]
14,O=c1[nH]ncc2ccccc12,"inconclusive: 87.9 µM [inhibitor, single point]"
15,CN(N=O)C(=O)N[C@@H]1[C@@H](O)[C@H](O)[C@@H](CO)O[C@@H]1O,inactive
16,Cc1ccc(Cl)c(Nc2ccccc2C(=O)O)c1Cl,"inconclusive: 43.6 µM [inhibitor, single point]"

# Biological target: Cytochrome P450 2C9 (Homo sapiens) (UniProt P11712)
# Test: Cytochrome P450 Family 2 Subfamily C Member 9 (CYP2C9) small molecule antagonists: luciferase reporter qHTS assay (AID 1671198); further: nearly all actives have a fitted effect of over 50% in size
# Details: P450-Glo CYP2C9 enzyme assay, luciferin luminescence; series mostly up to 115 µM
# Outline: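 Enzyme-substrate mix preincubated with compound 10 min at room temperature; reaction started with NADPH regeneration solution, 1 h 37C. Luminescent luciferin product read after 20 min detection reagent.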
row,Compound,Potency
1,C1CCCC1,inactive
2,CCCCOC(=O)C(C)CC (configuration not stated),inactive
3,CCC(C)COC(C)=O (configuration not stated),inactive
4,CCCCCCCCCCCC(=O)OC,inactive
5,CCOC(=O)c1ccccc1C,"inconclusive: 71 µM [inhibitor, partial curve, poor fit]"
6,CC1=C(C=O)C(C)(C)CCC1,"inconclusive: 63.3 µM [inhibitor, partial curve]"
7,Cc1cccc([N+](=O)[O-])c1C,inactive
8,CC(=O)/C(C)=C/C1C(C)=CCCC1(C)C (configuration not stated),"inconclusive: 89.4 µM [inhibitor, single point]"
9,CC(=O)OCC[N+](C)(C)C,inactive
10,Cc1cccc(C)c1NC(=O)c1cc(S(N)(=O)=O)c(Cl)cc1O,"inconclusive: 34.7 µM [inhibitor, partial curve]"
11,CCCC(=O)C(C)=O,"inconclusive: 35.6 µM [inhibitor, partial curve]"
12,CC(=O)OCC(COC(C)=O)OC(C)=O,"inconclusive: 71 µM [inhibitor, partial curve, poor fit]"
13,O=C(OCc1ccccc1)c1ccccc1,"inconclusive: 27.5 µM [inhibitor, partial curve]"
14,COC(=O)CCCCC(=O)OC,"inactive and inconclusive: 50.2 µM [inhibitor, partial curve, poor fit]"
15,C=CC(=O)NC(C)(C)CS(=O)(=O)O,"inconclusive: 78 µM [inhibitor] and inconclusive: 40.5 µM [inhibitor, partial curve]"
16,CCCCCCCC(=O)OC,inactive
17,CC(NN)c1ccccc1 (configuration not stated),"inconclusive: 10.7 µM [inhibitor, partial curve]"
18,CCOC(=O)C1OC1c1ccccc1 (configuration not stated),"inconclusive: 64.6 µM [inhibitor, partial curve] and inconclusive: 79.6 µM [inhibitor]"
19,Nc1ncnc2c1ncn2[C@@H]1O[C@H](COP(=O)(O)O)[C@@H](O)[C@H]1O,inactive
20,CN(C/C=C/c1ccccc1)Cc1cccc2ccccc12,"inconclusive: 9.77 µM [inhibitor, full curve]"
21,O=c1[nH]ncc2ccccc12,inactive
22,CN(N=O)C(=O)N[C@@H]1[C@@H](O)[C@H](O)[C@@H](CO)O[C@@H]1O,inactive
